We go through one substance from article PMC4432389, “Cytosolic Hsp70 and co-chaperones constitute a novel system for tRNA import into the nucleus” (eLife, 2015).

Sequences of proteins named here, by UniProt entry; tags and fusion partners are left off. Residues count along the entry.
UniProt Q02629, residues 1-640: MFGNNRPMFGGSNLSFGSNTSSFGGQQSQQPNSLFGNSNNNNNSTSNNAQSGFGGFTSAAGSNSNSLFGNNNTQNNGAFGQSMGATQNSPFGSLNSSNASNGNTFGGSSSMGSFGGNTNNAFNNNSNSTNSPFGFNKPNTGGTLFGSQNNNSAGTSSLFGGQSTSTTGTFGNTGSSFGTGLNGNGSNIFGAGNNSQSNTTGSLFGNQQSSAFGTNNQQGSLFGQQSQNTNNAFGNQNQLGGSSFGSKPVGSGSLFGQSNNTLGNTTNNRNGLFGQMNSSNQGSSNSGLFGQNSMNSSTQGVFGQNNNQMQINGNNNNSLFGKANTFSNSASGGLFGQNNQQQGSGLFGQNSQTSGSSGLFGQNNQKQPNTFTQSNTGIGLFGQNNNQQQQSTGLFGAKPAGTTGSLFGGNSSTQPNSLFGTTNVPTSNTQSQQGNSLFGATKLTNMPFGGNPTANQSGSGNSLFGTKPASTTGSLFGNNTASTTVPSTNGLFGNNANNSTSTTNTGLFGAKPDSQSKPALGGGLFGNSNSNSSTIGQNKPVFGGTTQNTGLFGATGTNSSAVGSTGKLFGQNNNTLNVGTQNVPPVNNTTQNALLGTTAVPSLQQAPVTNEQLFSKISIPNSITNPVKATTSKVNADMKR
UniProt P10591: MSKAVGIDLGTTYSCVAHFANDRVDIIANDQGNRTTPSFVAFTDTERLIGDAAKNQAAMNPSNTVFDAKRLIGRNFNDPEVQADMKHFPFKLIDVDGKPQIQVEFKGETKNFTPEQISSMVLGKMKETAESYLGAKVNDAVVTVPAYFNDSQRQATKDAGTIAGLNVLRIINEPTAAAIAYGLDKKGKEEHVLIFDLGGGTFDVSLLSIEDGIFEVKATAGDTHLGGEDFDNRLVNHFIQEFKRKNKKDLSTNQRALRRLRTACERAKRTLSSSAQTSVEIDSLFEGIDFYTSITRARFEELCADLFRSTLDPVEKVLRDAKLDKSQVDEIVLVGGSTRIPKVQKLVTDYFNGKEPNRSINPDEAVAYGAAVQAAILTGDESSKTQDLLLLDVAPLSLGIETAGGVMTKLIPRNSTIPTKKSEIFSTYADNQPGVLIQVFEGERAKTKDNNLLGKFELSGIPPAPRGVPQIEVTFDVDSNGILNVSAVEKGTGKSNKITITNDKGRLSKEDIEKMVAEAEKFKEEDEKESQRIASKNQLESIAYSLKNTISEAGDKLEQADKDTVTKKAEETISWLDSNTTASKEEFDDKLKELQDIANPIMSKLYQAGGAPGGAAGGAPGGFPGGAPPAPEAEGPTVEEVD

No constants are given. Whether binding was seen depends on the method and setting.

For this assay, the target named is GST-Nup100(1–640)p (S. cerevisiae) (UniProt Q02629). Briefly: pull-down; 200 pmol GST or GST-nucleoporin fusion and 40 pmol Ssa1p or Ssa2p incubated with Glutathione Sepharose in Buffer 88 (20 mM HEPES-KOH pH 6.8, 2 mM Mg(OAc)2, 150 mM KOAc) with 0.10% wt/vol Tween-20, 4°C, 2 hr; eluted with 10 mM reduced glutathione; Ssa proteins detected by Western blotting with anti-Ssa protein antibodies; both purified.

Take Ssa1p (from UniProt P10591 1-642): the binding entry is “no binding (tested: 200 pmol GST fusion, 40 pmol Ssa protein)”.
